Measurements reported in PubChem BioAssay AID504764 (Drosophila RNAi Screening Center, 2011).
The deposit covers about 22,000 reagents; this is an unselected part of those that have a named target and a result. Of all reagents, 403 (1.9%) are marked active. 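Unnormalised raw counts per well; ratio z-scores behind the hit calls and whether each hit raises or lowers signal are not deposited.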 A plus sign joins genes that one reagent is predicted to hit. Reagent sequences are not shown. The record does not give: the amount of reagent.

- Test: 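Knock-downs that raise or lower a Notch target reporter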 (primary screen)
- System: Drosophila Kc167 cells
- Reagent: long dsRNA against Drosophila genes
- Timing: about 5 days (4 days dsRNA, then 24 h after transfection)
- Conditions: transfection of constitutively active membrane-tethered Notch lacking the extracellular domain, read 24 h later
- Measurement: 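Light from a Notch-responsive E(spl)m3 luciferase reporter under active Notch, with control-promoter and no-Notch reporter wells to normalise; raw counts from paired wells a and b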
- Scale: induced reporter light, run 1, well a and induced reporter light, run 1, well b: higher = more light from the Notch target reporter with active Notch; control promoter light, run 1, well a and control promoter light, run 1, well b: higher = more light from the viral control promoter (cell number, transfection, viability); uninduced reporter light, run 1, well a: higher = more light from the Notch target reporter without active Notch
- Active means: 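Wells with low control signal or poorly matching duplicates excluded; duplicates averaged; per source plate, z beyond ±2 for induced/control log2 ratio or beyond ±1.8 for induced/uninduced marks a hit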
- Meaning of the calls: active = modifier hit (raised or lowered Notch signal); inactive = not a hit

Depletion of sbr (GeneID 43944) [DRSC19770] came out at: induced reporter light, run 1, well a = 1.03e5; induced reporter light, run 1, well b = 93055; control promoter light, run 1, well a = 1.12e5; control promoter light, run 1, well b = 1.50e5; uninduced reporter light, run 1, well a = 5670; inactive.
After knock-down of sbr (GeneID 43944) [DRSC20368] the results were induced reporter light, run 1, well a = 45925; induced reporter light, run 1, well b = 41965; control promoter light, run 1, well a = 55610; control promoter light, run 1, well b = 44070; uninduced reporter light, run 1, well a = 2745; inactive.
Against Hph (GeneID 40633) [DRSC12164] the deposit lists induced reporter light, run 1, well a = 2.21e5; induced reporter light, run 1, well b = 1.37e5; control promoter light, run 1, well a = 2.46e5; control promoter light, run 1, well b = 1.57e5; uninduced reporter light, run 1, well a = 12255; inactive.
For Hph (GeneID 40633) [DRSC12251], the entry reads induced reporter light, run 1, well a = 25435; induced reporter light, run 1, well b = 18905; control promoter light, run 1, well a = 16550; control promoter light, run 1, well b = 15540; uninduced reporter light, run 1, well a = 2138; inactive.
For Kr-h2 (GeneID 33859) [DRSC03356], the values are induced reporter light, run 1, well a = 60670; induced reporter light, run 1, well b = 50050; control promoter light, run 1, well a = 48320; control promoter light, run 1, well b = 66700; uninduced reporter light, run 1, well a = 3592; inactive.
With knock-down of CG31086 + CG31323 [DRSC14902], the screen gave induced reporter light, run 1, well a = 1.78e5; induced reporter light, run 1, well b = 2.01e5; control promoter light, run 1, well a = 2.18e5; control promoter light, run 1, well b = 2.12e5; uninduced reporter light, run 1, well a = 14205; inactive.

2 entries from above, sorted by “uninduced reporter light, run 1, well a”, highest first:
sbr (GeneID 43944) [DRSC19770]: induced reporter light, run 1, well a = 1.03e5; induced reporter light, run 1, well b = 93055; control promoter light, run 1, well a = 1.12e5; control promoter light, run 1, well b = 1.50e5; uninduced reporter light, run 1, well a = 5670; Outcome = inactive
sbr (GeneID 43944) [DRSC20368]: induced reporter light, run 1, well a = 45925; induced reporter light, run 1, well b = 41965; control promoter light, run 1, well a = 55610; control promoter light, run 1, well b = 44070; uninduced reporter light, run 1, well a = 2745; Outcome = inactive

More entries:
With knock-down of Nprl3 (GeneID 39550) [DRSC11044] the results were induced reporter light, run 1, well a = 1.50e5; induced reporter light, run 1, well b = 1.46e5; control promoter light, run 1, well a = 1.27e5; control promoter light, run 1, well b = 1.30e5; uninduced reporter light, run 1, well a = 12270; inactive.
Against Golgin84 (GeneID 42905) [DRSC15269], the entry reads induced reporter light, run 1, well a = 1.40e5; induced reporter light, run 1, well b = 1.64e5; control promoter light, run 1, well a = 1.85e5; control promoter light, run 1, well b = 2.04e5; uninduced reporter light, run 1, well a = 13480; inactive.
After knock-down of CG31636 (GeneID 318865) [DRSC02276], the record shows induced reporter light, run 1, well a = 68290; induced reporter light, run 1, well b = 54680; control promoter light, run 1, well a = 70125; control promoter light, run 1, well b = 57870; uninduced reporter light, run 1, well a = 3650; inactive.
For Antdh (GeneID 32058) [DRSC20307] the deposit lists induced reporter light, run 1, well a = 1.24e5; induced reporter light, run 1, well b = 1.55e5; control promoter light, run 1, well a = 2.80e5; control promoter light, run 1, well b = 2.58e5; uninduced reporter light, run 1, well a = 8290; inactive.
After knock-down of asRNA:CR42547 + CG15674 [DRSC04264] the results were induced reporter light, run 1, well a = 65735; induced reporter light, run 1, well b = 52140; control promoter light, run 1, well a = 49250; control promoter light, run 1, well b = 61265; uninduced reporter light, run 1, well a = 2805; inactive.
Against MICAL-like (GeneID 39475) [DRSC09829], the entry reads induced reporter light, run 1, well a = 1.35e5; induced reporter light, run 1, well b = 1.38e5; control promoter light, run 1, well a = 85175; control promoter light, run 1, well b = 78260; uninduced reporter light, run 1, well a = 13415; inactive.
